2 substances from publication PMC4331492 can be followed below.

Amino acid sequences for entries named in this document (tags omitted).
UniProt Q99814: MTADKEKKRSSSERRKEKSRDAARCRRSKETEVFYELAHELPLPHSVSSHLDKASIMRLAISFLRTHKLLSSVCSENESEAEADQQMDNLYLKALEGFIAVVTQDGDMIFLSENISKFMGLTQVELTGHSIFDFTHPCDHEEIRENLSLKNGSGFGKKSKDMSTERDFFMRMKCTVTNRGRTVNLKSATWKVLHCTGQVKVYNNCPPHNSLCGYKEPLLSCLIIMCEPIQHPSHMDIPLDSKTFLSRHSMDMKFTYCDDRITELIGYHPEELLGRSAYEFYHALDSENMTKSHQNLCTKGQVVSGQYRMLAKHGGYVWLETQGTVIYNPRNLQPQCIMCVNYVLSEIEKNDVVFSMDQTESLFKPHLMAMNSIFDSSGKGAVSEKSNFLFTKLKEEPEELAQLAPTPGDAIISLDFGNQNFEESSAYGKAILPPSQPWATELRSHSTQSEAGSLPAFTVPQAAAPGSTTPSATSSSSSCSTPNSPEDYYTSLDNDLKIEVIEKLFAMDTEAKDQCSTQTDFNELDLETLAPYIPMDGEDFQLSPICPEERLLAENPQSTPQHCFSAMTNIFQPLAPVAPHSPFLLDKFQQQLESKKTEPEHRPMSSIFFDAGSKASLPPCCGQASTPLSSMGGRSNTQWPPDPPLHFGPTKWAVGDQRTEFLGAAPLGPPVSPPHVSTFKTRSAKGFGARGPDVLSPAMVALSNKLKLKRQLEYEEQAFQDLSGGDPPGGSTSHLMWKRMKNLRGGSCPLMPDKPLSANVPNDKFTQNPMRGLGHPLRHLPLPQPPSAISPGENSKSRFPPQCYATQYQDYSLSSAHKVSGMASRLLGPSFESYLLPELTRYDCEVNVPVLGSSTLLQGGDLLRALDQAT
UniProt Q92793: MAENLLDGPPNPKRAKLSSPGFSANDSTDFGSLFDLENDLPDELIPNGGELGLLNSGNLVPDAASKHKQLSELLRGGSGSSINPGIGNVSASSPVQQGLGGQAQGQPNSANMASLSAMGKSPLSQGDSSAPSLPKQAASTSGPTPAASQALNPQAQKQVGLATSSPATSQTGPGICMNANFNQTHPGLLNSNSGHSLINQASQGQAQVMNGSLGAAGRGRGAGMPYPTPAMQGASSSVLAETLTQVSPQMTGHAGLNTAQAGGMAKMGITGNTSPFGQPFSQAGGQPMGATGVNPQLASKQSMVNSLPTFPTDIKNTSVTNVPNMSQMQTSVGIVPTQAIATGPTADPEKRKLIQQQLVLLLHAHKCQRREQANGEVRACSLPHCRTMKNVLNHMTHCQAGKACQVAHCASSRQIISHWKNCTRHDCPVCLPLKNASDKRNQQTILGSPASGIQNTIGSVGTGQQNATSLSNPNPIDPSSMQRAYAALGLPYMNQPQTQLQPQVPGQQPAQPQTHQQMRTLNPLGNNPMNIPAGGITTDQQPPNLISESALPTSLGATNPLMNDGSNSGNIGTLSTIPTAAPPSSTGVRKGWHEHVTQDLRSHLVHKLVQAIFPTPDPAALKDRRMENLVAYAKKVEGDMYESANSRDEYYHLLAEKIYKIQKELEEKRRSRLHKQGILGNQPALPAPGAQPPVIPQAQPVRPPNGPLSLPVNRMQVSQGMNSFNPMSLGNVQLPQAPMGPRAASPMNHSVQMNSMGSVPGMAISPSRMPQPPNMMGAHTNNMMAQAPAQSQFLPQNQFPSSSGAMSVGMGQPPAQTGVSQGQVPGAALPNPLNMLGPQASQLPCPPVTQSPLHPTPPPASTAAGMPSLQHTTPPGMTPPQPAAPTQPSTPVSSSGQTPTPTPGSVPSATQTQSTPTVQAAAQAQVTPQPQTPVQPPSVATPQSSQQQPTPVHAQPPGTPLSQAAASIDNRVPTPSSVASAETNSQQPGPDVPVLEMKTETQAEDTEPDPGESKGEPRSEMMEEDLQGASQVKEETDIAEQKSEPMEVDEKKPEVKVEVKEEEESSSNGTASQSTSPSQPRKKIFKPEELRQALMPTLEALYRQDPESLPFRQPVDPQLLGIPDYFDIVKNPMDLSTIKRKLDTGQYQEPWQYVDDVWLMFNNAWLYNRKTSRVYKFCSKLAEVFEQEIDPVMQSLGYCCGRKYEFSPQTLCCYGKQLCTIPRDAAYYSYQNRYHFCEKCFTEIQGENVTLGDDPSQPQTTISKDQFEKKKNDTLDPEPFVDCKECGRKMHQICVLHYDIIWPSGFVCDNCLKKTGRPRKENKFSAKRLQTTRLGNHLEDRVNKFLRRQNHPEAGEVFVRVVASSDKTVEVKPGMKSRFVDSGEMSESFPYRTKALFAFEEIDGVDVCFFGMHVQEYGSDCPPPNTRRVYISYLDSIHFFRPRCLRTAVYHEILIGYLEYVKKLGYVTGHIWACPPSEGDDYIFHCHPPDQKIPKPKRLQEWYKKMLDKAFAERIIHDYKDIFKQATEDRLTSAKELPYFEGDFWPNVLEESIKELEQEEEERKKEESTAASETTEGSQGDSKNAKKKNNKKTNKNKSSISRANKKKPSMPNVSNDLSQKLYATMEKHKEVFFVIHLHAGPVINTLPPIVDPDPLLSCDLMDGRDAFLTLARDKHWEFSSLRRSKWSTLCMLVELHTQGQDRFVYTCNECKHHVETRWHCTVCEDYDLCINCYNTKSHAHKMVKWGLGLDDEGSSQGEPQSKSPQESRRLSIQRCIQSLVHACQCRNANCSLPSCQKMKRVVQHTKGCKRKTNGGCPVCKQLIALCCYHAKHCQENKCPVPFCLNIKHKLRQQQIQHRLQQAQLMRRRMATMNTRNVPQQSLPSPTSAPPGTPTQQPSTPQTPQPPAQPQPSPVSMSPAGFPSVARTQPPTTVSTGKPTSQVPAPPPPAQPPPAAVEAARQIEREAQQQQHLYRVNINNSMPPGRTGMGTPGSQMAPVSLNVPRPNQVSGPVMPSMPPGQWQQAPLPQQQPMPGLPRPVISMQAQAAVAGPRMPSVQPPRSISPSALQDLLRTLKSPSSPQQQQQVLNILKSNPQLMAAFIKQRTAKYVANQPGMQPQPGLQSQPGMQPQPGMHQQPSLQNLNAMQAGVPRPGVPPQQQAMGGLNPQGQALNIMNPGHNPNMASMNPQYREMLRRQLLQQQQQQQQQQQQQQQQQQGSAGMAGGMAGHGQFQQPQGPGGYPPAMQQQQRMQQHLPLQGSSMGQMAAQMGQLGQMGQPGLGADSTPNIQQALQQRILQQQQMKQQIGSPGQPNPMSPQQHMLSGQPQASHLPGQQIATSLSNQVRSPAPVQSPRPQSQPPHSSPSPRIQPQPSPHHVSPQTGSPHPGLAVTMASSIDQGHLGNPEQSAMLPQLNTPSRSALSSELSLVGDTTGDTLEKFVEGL
UniProt Q09472: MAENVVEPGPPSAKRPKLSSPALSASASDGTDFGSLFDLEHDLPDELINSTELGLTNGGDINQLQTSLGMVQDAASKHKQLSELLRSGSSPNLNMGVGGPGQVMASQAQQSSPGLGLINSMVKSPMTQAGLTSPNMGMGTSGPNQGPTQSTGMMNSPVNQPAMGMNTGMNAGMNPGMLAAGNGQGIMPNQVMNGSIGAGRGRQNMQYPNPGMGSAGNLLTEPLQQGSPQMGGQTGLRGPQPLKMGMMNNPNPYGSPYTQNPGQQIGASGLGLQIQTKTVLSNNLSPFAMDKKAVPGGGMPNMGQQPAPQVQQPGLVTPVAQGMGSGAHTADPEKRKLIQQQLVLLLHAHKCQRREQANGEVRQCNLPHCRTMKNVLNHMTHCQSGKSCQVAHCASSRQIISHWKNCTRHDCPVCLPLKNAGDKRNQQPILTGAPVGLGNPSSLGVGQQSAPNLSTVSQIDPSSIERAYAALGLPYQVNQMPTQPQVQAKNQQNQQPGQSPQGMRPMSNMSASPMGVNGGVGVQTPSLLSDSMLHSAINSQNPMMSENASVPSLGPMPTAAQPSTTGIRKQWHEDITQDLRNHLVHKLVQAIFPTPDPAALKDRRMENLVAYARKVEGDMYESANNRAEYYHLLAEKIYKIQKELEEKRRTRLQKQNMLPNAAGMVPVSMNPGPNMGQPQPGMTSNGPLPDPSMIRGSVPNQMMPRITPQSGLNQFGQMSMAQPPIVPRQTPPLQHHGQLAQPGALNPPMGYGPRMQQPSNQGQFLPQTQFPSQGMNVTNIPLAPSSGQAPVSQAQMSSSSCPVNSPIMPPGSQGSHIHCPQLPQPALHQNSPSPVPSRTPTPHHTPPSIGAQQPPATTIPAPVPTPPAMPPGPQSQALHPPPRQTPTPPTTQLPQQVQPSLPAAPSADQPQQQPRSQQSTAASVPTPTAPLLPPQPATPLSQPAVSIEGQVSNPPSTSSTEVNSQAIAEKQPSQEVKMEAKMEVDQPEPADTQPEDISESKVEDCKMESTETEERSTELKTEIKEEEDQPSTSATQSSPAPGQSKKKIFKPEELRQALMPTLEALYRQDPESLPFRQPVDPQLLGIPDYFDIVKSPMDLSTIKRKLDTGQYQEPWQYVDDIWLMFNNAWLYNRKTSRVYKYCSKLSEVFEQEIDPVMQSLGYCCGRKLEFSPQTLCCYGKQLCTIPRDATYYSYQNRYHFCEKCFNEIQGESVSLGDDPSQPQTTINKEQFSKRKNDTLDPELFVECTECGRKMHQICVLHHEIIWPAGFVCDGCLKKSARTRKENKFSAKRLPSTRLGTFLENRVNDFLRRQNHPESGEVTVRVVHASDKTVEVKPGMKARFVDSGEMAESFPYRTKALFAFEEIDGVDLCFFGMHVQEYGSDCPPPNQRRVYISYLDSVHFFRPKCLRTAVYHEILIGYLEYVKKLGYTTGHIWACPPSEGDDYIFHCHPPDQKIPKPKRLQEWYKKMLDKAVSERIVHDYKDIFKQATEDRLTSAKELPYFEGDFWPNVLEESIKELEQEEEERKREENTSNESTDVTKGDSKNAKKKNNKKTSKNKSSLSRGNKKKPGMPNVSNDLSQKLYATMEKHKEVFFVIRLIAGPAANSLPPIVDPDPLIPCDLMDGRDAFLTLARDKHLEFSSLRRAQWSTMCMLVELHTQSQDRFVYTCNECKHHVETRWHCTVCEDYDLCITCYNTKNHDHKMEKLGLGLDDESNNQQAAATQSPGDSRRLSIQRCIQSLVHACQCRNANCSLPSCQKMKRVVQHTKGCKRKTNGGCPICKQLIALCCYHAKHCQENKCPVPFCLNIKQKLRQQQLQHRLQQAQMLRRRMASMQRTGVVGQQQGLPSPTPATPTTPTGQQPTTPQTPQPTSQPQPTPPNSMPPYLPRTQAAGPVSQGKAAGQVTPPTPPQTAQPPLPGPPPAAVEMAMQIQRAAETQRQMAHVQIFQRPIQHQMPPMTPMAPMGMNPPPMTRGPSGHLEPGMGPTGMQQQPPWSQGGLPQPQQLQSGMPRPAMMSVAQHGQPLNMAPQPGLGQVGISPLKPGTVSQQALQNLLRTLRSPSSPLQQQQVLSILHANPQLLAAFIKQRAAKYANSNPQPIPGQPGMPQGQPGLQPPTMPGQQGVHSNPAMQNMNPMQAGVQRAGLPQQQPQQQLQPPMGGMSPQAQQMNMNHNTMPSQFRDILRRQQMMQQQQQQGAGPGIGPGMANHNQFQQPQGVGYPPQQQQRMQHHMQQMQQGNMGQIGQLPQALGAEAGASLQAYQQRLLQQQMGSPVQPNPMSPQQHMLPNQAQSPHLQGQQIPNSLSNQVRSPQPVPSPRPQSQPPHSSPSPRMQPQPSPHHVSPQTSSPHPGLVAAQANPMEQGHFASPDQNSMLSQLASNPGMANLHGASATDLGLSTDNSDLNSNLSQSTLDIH

These are yes or no findings as the source states them, for the method shown. In cells and extracts the contact can be indirect. Some binding calls cover weakened binding; strength is not graded here.

The target in assay [1] is Hypoxia Inducible Factor 2 alpha (HIF-2α) (human (endogenous in HT1080)) (UniProt Q99814). Kind of assay: co-IP; in vitro: acetyl CoA (50 μM), ATP (100 μM) or acetate (50 μM) added to 50 μl HT1080 extract (ACSS2-depleted or ACSS2-replete, from hypoxia or low glucose cells), 30°C for 30 min, then endogenous HIF-2α immunoprecipitated and immunoblot for CBP or p300.
Assay [2] shares this target. Put plainly: co-IP; as a1; cells after SIRT1 siRNA knock-down, then hypoxia, low glucose or acetate exposure.
For assay [3] the target is unchanged. Put plainly: condition: only after ACSS2 knock-down, early (4 hr) hypoxia; co-IP; as a1; cells after ACSS2 siRNA knock-down (with or without FIH1 knock-down), early (4 hr) hypoxia.
Assay [4] has the same target. Put plainly: co-IP; endogenous HIF-2α immunoprecipitated from HT1080 extracts (Universal Co-IP kit, protein A agarose), immunoblot for CBP or p300; cells exposed to hypoxia (4 or 16 hr), low glucose (2 or 24 hr) or 0.5 mM acetate (4 hr); control or FIH1 siRNA.
Assay [5] shares this target. Kind of assay: co-IP; as a1; cells after ACSS2 siRNA knock-down (with or without FIH1 knock-down), early (4 hr) hypoxia.
Assay [6] has the same target. Put plainly: condition: only cells after acetate addition without FIH1 knock-down; co-IP; as a1; cells treated with acetate (4 hr), FIH1 not knocked down (also after ACSS2 knock-down).
The target is the same in assay [7]. Put plainly: condition: only cells under glucose deprivation (early 2 hr or late 24 hr); co-IP; as a1; cells under low glucose (1 mM), early (2 hr) or late (24 hr), FIH1 not knocked down (also after ACSS2 knock-down).

Turning to “Creb binding protein (CBP) (from UniProt Q92793 1-2442)”, the binding result in assay [1] was “binds”; in assay [2] it was “no binding (condition: after SIRT1 knock-down)”; in assay [3], “no binding”; in assay [4], “binds”.

Regarding p300 (from UniProt Q09472 1-2414), the binding entry in assay [5] is “binds”; in assay [6], “no binding”; in assay [4] it was “binds”; in assay [7], “no binding”.
